Drawing on patent EP4676971A2, this text covers binding for one molecule.

In the experiment the target is T1, DR3 receptor on human TF-1 cells (human) (UniProt Q93038).
T1 sequence (looked up): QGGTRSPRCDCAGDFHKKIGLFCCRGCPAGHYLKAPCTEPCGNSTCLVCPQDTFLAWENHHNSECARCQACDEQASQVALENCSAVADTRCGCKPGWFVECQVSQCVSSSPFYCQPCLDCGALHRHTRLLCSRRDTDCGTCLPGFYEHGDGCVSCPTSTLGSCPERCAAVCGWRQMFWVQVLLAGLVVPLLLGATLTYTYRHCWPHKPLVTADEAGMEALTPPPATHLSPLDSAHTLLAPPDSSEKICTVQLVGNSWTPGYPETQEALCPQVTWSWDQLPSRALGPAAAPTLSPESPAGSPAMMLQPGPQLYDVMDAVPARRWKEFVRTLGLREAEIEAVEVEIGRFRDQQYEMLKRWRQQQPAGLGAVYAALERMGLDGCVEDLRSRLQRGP
The experiment is described as follows: TF-1 cell caspase activation assay.

Results are given in words; binding and its absence hold for the method and conditions named. Some binding calls cover weakened binding; strength is not graded here.

B1: recombinant cynomolgus monkey TL1A protein (ligand)
chain: LKGQEFAPSHQQVYAPLRADGDKPRAHLTVVRQTPTQHLKNQFPALHWEHELGLAFTKNRMNYTNKFLLIPESGDYFVYSQVTFRGMTSECSEIRQAGRPNKPDSITVVITKVTDSYPEPTQLLMGTKSVCEVGSNWFQPIYLGAMFSLQEGDKLMVNVSDISLVDYTKEDKTFFGAFLL
In the case of B1, the binding result was “binds”.
